Two substances from article PMC9324012 can be followed below.

By UniProt entry, the sequences of proteins in these tests, tags left out. Where a name states a change or a piece, a line headed by the entry shows the natural chain unless it says otherwise.
UniProt Q09028: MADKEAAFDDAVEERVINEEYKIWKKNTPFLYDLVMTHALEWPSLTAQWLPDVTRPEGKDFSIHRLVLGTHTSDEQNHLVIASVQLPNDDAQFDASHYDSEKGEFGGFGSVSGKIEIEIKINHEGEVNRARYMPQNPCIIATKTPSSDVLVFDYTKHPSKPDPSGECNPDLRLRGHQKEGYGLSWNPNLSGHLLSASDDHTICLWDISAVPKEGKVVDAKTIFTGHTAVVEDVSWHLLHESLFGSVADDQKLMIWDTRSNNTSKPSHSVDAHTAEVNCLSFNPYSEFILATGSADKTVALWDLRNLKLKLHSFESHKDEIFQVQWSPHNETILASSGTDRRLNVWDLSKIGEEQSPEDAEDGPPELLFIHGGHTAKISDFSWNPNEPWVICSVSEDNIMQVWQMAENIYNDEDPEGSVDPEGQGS
UniProt O14744: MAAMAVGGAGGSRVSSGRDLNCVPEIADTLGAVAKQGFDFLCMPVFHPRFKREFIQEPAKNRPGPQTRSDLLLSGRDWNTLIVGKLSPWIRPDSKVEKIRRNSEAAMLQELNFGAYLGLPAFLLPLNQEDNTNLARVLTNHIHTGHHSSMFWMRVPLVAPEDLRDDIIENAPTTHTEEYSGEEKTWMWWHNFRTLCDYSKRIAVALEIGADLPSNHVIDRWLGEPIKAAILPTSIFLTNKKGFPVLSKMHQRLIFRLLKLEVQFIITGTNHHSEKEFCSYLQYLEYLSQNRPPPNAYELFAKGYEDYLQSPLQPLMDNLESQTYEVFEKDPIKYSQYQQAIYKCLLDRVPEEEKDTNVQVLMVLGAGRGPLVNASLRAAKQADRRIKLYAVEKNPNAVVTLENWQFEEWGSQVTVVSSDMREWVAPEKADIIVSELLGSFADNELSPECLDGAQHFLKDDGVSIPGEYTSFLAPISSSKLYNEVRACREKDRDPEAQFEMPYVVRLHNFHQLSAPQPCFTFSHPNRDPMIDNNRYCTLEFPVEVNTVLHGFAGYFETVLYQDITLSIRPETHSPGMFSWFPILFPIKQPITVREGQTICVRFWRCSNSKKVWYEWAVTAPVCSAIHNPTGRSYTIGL

The experiment addresses T1, HA-tagged ZEB2 (Zinc finger E-box-binding homeobox 2) (UniProt A0JP08).
T1 sequence: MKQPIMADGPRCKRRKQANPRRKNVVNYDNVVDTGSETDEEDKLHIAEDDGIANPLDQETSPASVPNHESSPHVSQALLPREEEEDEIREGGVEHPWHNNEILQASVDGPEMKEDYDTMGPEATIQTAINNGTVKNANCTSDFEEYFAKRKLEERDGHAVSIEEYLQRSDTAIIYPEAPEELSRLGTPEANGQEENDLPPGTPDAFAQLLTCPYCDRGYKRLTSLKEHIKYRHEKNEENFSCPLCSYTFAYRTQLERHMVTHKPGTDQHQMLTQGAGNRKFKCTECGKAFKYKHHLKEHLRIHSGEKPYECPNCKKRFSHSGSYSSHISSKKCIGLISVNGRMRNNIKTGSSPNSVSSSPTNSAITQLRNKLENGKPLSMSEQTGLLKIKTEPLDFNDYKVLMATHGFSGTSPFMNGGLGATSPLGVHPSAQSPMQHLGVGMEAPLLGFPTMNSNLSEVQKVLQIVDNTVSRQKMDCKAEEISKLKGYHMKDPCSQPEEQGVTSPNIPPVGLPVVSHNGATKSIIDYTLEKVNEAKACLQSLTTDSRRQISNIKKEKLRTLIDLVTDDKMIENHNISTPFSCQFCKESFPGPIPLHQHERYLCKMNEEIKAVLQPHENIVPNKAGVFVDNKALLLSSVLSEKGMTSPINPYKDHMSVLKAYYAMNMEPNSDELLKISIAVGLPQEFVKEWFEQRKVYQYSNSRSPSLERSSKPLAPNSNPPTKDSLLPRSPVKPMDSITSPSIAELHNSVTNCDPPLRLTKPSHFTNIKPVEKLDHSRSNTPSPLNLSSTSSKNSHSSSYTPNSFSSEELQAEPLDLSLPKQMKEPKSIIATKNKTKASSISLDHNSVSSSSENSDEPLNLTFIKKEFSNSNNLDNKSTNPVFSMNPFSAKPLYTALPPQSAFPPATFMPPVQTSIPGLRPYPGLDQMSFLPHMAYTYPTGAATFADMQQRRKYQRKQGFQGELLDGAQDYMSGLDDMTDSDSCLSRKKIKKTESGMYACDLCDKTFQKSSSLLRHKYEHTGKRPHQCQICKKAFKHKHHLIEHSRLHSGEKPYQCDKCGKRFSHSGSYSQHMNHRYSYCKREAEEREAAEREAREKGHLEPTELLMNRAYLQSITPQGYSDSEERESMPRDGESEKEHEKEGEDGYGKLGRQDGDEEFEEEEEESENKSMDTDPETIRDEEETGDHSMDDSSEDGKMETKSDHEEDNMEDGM
Briefly: affinity purification with mass spectrometry; lysate of about 2 x 10^8 SW480 cells stably overexpressing HA-tagged ZEB2 on anti-HA affinity beads, 4 °C, 2 h; washes with 0.42 M NaCl and 500 mM KCl buffers; SDS-PAGE and LC-MS/MS; HA alone as control.

These are yes or no findings as the source states them, for the method shown. Binding seen in cells or lysates may run through a third protein. Here binding means that the protein was enriched with, or labelled near, the bait; the list need not be complete. Sequences can lack the tags named with a protein.

“Histone-binding protein RBBP4 (RbAp48), endogenous (from UniProt Q09028 1-425)”: the binding result is on record as “binds”. Turning to “Protein arginine N-methyltransferase 5 (PRMT5), endogenous (from UniProt O14744) (enzyme)”, the binding entry is recorded as “binds”.
